Reference: patent US20060003988A1, “Compounds capable of inhibiting immunocyte-related allergic immune reactions” (priority 2002, published 2006)
Where two headings read alike, the source gives them in different places.

What was measured:
T cells = assay: T cell proliferation (3H-thymidine incorporation) via different costimulation pathways; assay type: cell-based, human
Excerpt: The first pathway was PMA, the second pathway stimulation on CD28 that is one of the representative T cell costimulation molecules, and the third pathway stimulation on CD26 that is expressed on CD4^+ memory T cells. The simulation on CD3 was applied together with all of these stimulations. […] OKT3 was purchased from the American Tissue Culture Collection (ATCC, Rockville, Md.), while 4B10 and 1F7 were purified from mouse ascites of hybridomas established in the present inventors' laboratory ([…] et al., 1991, supra; Morimoto C et al., 1989, supra). Specifically, human peripheral blood mononuclear cells (PBMC) were isolated from the peripheral blood of normal healthy persons by specific gravity centrifugation using Ficoll/Paque (Pharmacia Biotech Inc., Piscataway, N.J.). Unfractionated mononuclear cells were separated using the E-rosette positive (E^+) method and used as unstimulated T cells. The mononuclear cells were adhered to a plastic plate for 24 hours at 37° C., and then removed by culturing for one hour in 5 mM L-leucine methyl ester HCL (Sigma Chemical Co.) solution. […] The cells were stimulated for eight hours with 1 μCi ^3H-thymidine (ICN Radiochemicals, Irvine, Calif.) per well, recovered on a glass fiber filter (Wallac, Turku, Finland) to quantify the incorporated radioactivity with a liquid scintillation counter (Wallac).

[1] = test system: IL-5 production from peripheral blood T cells; assay: IL-5 production from peripheral blood T cells (ELISA); assay type: cell-based, human; details: 5 μM; five independent donors
Procedure: The antibody-coated plates and T cells were prepared similarly as in Example 1 except that the OKT3 concentration was 0.5 μg/ml. The cytokine production by T cells was analyzed in triplicate using 96-well flat-bottomed plates by the same method employed in the T cell proliferation analysis described above. After culturing for 24 hours, the culture supernatant was tested using ELISA kit (IL-2: Biosource International, Camarillo, Calif.; IFN-γ: R&D systems, Minneapolis, Minn.) to quantify IL-2 and IFN-γ.
Th2 type CD4 T cells play an important role in allergic diseases. Therefore, the present inventors analyzed the effects of ebastine on Th2 type cytokines (IL-4, and IL-5) induced by the various costimulations described above. This analysis was performed similarly as in Example 2 except that ELISA (IL-4: Biosource International, Camarillo, Calif.; IL-5: R&D systems, Minneapolis, Minn.) was used to quantify IL-4 and IL-5.

PHA-stimulated T cells = assay: Transendothelial migration of PHA-stimulated T cells through ECV304 monolayer; assay type: cell-based, human
Procedure: In order to determine the effect of ebastine on T cell permeation, the present inventors analyzed vascular transendothelial migration of PHA-stimulated T cells in vitro. Since fresh resting-stage T cells hardly migrate by permeating a monolayer of endothelial cells, these T cells were activated using PHA (10 μg/ml) prior to performing transendothelial migration analysis.
Specifically, the analysis of transendothelial migration was performed by slightly modifying a known method (Iwata S, Yamaguchi N, Munakata Y, Ikushima H, Lee J F, Hosono O, Schlossman S F, Morimoto C. “CD26/DPPIV differentially regulates the chemotaxis of T cells and monocytes toward RANTES. Possible mechanism for the switch from innate to acquired immune response.” Int Immunol. 11:417-426, 1999). Human endothelial cell strain ECV304 was obtained from the American Tissue Culture Collection (ATCC; Rockville, Md.) and cultured for 48 hours on Transwell cell culture inserts (Corning Costar, Cambridge, Mass.) with a pore size of 3.0 μm. The cells were loaded onto a 24-well plastic plate for cell culture (FALCON), and mixed with H1 blockers at various concentrations using Transwell assay medium (RPMI1640 medium, BSA 0.6%, Penicillin G/Streptomycin 1%, HEPES 50 mM). Two-hundred μl of PHA-stimulated T cells (1×10^7/ml) were then placed in the upper chamber and 600 μl of assay medium was placed in the lower chamber, and migration was performed for eight hours at 37° C. under 5% CO2. After recovery of the cells, the number of cells was counted for one minute by flow cytometry (FACSCalibur, Nippon Becton-Dickinson, Tokyo, Japan).

ICAM-1 = details: for cell fluorescence intensity, ICAM-1: endothelial cells
VCAM-1 = details: for cell fluorescence intensity, VCAM-1: endothelial cells
Cas-L = details: PHA-stimulated T cells; 0.1 μM to 1.0 μM; dose dependent
FAK = details: PHA-stimulated T cells; 0.1 μM to 1.0 μM
[2] = in vivo; cited from earlier work
[3] = test system: histamine-induced contraction in trachea samples; details: trachea samples excised from guinea pigs; read-out: IC50 of the effects on histamine-induced contraction; cited from earlier work

For `CC(C)(C)c1ccc(C(=O)CCCN2CCC(OC(c3ccccc3)c3ccccc3)CC2)cc1` [ebastine, 4-diphenylmethoxy-1[3-(4-terbutyl-benzoyl)-propyl]piperidine], the “inhibition of T cell proliferation” value (T cells; 20 μM to 50 μM, in a certain donor) was roughly 100%, the “effect on T cell proliferation” value (T cells; stimulation on CD3 combined with CD26, CD28 or PMA, all concentrations used) was “clearly inhibited” and the “inhibition of IL-5 production” value [1] was no less than 50%. The “concentration at which inhibition of T cell migration reached a plateau level” value (PHA-stimulated T cells) was 5 µM, the “effect on T cell migration via ECV cells” value (PHA-stimulated T cells; ECV cells pretreated 48 hours, washed, then exposed to T cells, up to 10 μM) was “did not show effect” and the “effect on T cell migration” value (PHA-stimulated T cells; compound present during migration, eight hours, ECV304 monolayer) was “markedly inhibited”. The “cell fluorescence intensity, CD3” value (CD3; Ebastine concentration 1 μM) was 10.6 ± 0.2: N.S, the “cell fluorescence intensity, CD3” value (CD3; Ebastine concentration 5 μM) was 10.9 ± 0.26: N.S and the “expression level of CD3” value (CD3; after treatment with ebastine) was “completely unaffected”. For the same compound, the “cell fluorescence intensity, CD11a” value (CD11a; Ebastine concentration 1 μM) was 53.8 ± 0.44: N.S, the “cell fluorescence intensity, CD11a” value (CD11a; Ebastine concentration 5 μM) was 53.9 ± 0.4: N.S and the “expression level of CD11a” value (CD11a; after treatment with ebastine) was “completely unaffected”. The “cell fluorescence intensity, CD25” value (CD25; Ebastine concentration 1 μM) was 18.3 ± 0.35: N.S, the “cell fluorescence intensity, CD25” value (CD25; Ebastine concentration 5 μM) was 16.5 ± 0.26: ** and the “expression level of CD25” value (CD25; after treatment with ebastine) was “completely unaffected”. The “decrease of expression level of CD26” value (CD26; 5 μM) was “approximately 14%”, the “cell fluorescence intensity, CD26” value (CD26; Ebastine concentration 1 μM) was 99.1 ± 0.36: ** and the “cell fluorescence intensity, CD26” value (CD26; Ebastine concentration 5 μM) was 87.8 ± 0.36: ***. For the same compound, the “decrease of expression level of CD29” value (CD29; 5 μM) was roughly 21%, the “cell fluorescence intensity, CD29” value (CD29; Ebastine concentration 1 μM) was 25.0 ± 0.26: * and the “cell fluorescence intensity, CD29” value (CD29; Ebastine concentration 5 μM) was 22.1 ± 0.36: ***. The “cell fluorescence intensity, CD44” value (CD44; Ebastine concentration 1 μM) was 47.6 ± 0.30: N.S, the “cell fluorescence intensity, CD44” value (CD44; Ebastine concentration 5 μM) was 47.9 ± 0.36: N.S and the “expression level of CD44” value (CD44; after treatment with ebastine) was “completely unaffected”. For the same compound, the “decrease of expression level of CD47” value (CD47; 5 μM) was roughly 31%, the “cell fluorescence intensity, CD47” value (CD47; Ebastine concentration 1 μM) was 11.4 ± 0.17: ** and the “cell fluorescence intensity, CD47” value (CD47; Ebastine concentration 5 μM) was 10.0 ± 0.26: ***. The “effect on fluorescence intensity of ICAM-1” value (ICAM-1; endothelial cell membrane) was “no effect”, the “cell fluorescence intensity, ICAM-1” value (ICAM-1; Ebastine concentration 1 μM) was 20.7 ± 0.52 and the “cell fluorescence intensity, ICAM-1” value (ICAM-1; Ebastine concentration 5 μM) was 20.4 ± 0.26. The “effect on fluorescence intensity of VCAM-1” value (VCAM-1; endothelial cell membrane) was “no effect”, the “cell fluorescence intensity, VCAM-1” value (VCAM-1; Ebastine concentration 1 μM) was 0.3 and the “cell fluorescence intensity, VCAM-1” value (VCAM-1; Ebastine concentration 5 μM) was 0.3. The “tyrosine phosphorylation of Cas-L” value (Cas-L) was “suppress”, the “tyrosine phosphorylation of FAK” value (FAK) was “slightly suppress” and the maximum blood concentration [2] was 0.03 µM. The IC50 [3] was greater than 10 µM.
